Laboratory results from patent US20130244239.

Columns and labels:
Test in all cases: ELONA
[1] = system: H-GFP (His-Xpress fusion lacking T7 leader, GFP); settings: binds, lower than HTX and HT; protein in a lysate after overexpression; label: 3'-poly A (20) hybridised to biotin-T20
[2] = system: HT-GFP (His-T7 leader-GFP); settings: protein in a lysate after overexpression, label: 3'-poly A (20) hybridised to biotin-T20
[3] = system: HTX-GFP (His-T7 leader-Xpress-GFP); settings: HTX about equal to HT; anti-GFP capture, 4 C, tRNA competitor; protein in a lysate after overexpression; label: 3'-poly A (20) hybridised to biotin-T20
[4] = system: T-GFP (T7 leader-GFP, no His tag); settings: no His tag; protein in a lysate after overexpression; protein details: T7 gene 10 leader, no His tag, GFP from TAKARA; label: 3'-poly A (20) hybridised to biotin-T20
[5] = system: TX-GFP (T7 leader-Xpress-GFP, no His tag); settings: no His tag; protein in a lysate after overexpression; label: 3'-poly A (20) hybridised to biotin-T20

Row | Sequence | binding result [1] | binding result [2] | binding result [3] | binding result [4] | binding result [5] | binding result ([2]; anti-GFP capture, variant of shot47)
1 | GGGACGCUCACGUACGCUCACGUCCGAUCGAUACUGGUAUAUUGGCGCCUUCGUGGAAUGUCAGUGCCUGGACGUGCAGU [shot47] | binds more weakly | binds | binds | no binding | no binding | –
2 | GGGUAUAUUGGCGCCUUCGUGGAAUGUCAGUGCCUGG [shot47sss] | – | – | – | – | – | binds

Construct, isoform or probe ends are uncertain for at least one entry. Results from cells or extracts need not show a direct contact. For part of these data: No signal at the amounts used counts as a negative. For part of these data: Weaker means in comparison with the reference protein, sequence or condition of that experiment.
